Percent effect of library compounds

Sequences of proteins named here, by UniProt entry; tags and fusion partners are left off. Residues count along the entry.
UniProt P9WFT3, whole entry: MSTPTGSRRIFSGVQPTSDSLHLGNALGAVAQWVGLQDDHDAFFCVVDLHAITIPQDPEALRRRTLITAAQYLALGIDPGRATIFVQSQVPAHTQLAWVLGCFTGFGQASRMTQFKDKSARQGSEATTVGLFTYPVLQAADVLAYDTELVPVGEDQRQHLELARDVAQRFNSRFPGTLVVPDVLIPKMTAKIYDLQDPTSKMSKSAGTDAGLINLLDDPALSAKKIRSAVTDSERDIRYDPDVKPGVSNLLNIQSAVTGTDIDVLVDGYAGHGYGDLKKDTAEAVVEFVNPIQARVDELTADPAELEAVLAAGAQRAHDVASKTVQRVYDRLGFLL
UniProt Q4DA54, 1-478: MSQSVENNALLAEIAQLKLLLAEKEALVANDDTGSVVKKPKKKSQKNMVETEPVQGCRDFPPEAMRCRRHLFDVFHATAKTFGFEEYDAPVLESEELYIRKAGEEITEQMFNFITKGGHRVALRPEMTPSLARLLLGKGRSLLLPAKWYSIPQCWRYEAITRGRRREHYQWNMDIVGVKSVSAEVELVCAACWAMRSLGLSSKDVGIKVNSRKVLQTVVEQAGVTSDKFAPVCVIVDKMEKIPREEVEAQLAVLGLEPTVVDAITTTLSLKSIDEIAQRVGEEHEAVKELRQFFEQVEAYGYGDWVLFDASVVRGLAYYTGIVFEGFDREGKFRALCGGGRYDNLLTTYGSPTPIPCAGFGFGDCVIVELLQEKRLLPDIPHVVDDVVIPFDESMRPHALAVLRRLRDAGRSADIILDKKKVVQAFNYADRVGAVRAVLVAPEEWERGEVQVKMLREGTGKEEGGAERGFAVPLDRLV

Measurements from “University of Dundee, Small-Polar-MMV Screening Library” (2021), ChEMBL document CHEMBL3988442.

MtTrpRS: 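Tryptophan-tRNA ligase, Mycobacterium tuberculosis (UniProt P9WFT3). Enzyme assay of tryptophanyl-tRNA synthetase; the read-out is not stated. Compounds at 10 µM. Direction is not recorded; retested compounds ran higher, which suggests that high means inhibition. About 65,000 compounds were tested under these conditions; 0.098% (about 64) showed 50% or more at least once.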
Leishmania in macrophages: 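Cell assay of Leishmania donovani living inside macrophages; the read-out is not stated. Tested at 30 µM. Direction is inferred from retests: higher values go with stronger inhibition. Size under these conditions: about 69,000 compounds, about 1,000 of them at 50% or above in at least one test.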
TcHisRS: 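Histidine-tRNA ligase, Trypanosoma cruzi CL Brener (UniProt Q4DA54). Enzyme assay of histidyl-tRNA synthetase; the read-out is not stated. Tested at 30 µM. Direction is inferred from retests: higher values go with stronger inhibition. Of about 69,000 compounds tested this way, about 31 (0.045%) reached 50% or more in at least one test.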

The filed quantity is “Percent Effect” (%). The record does not define 0% and 100%; most values in the screen are far below 50% and negative numbers occur (in some assays of this library far below -100). The compounds are a random part of those screened. Two or more numbers in one place are separate tests of the same structure; such repeats can differ widely. A dash means the value is not listed here; it may have been measured.

Compound,MtTrpRS,Leishmania in macrophages,TcHisRS
CNC(=O)c1cc2c(nc1N(C)C)CCN(S(=O)(=O)C1CC1)CC2,10.47%,-,2.174%
Cc1ccc(S(=O)(=O)NC2CC2)cc1C,-2.464%,12.81%,1.626%
COC(=O)C1CCN(C(=O)CN2CCN(c3cccc(C)c3)CC2)CC1,-2.056%,-0.8879%,4.132%
CC(C)CNC(=O)N1CCC2(CC1)OC(C(N)=O)Cn1ccnc12.O=C(O)C(F)(F)F (centres undefined),-,9.497%,-
Cc1cc(N(Cc2cccnc2)C2CC2)n2nc(C(F)(F)F)nc2n1,4.115%,13.89%,9.278%
CCCn1c(C)c(CC(=O)N(C)CC(=O)OC)c2c1CC(C)(C)CC2=O,4.067%,6.272%,4.933%
Cc1nnc(SCC(=O)NCc2ccc3c(c2)CCC(=O)N3)n1C,-1.643%,-8.54%,-0.4425%
Cn1nc(Cn2cccn2)c2c1CN(C1CCOC1)C2.O=C(O)C(F)(F)F (centres undefined),-,-2.222%,-
Cc1noc([C@]23COC[C@H]2CN(C(=O)COC2CCCC2)C3)n1,-,-,2.21%
COc1ncc(C2(O)CCN(Cc3cccc(F)c3F)CC2)c(OC)n1,-,-,14.29%
CN1CCN(S(C)(=O)=O)Cc2cccnc21,-,35.76%,10.55%
[H][C@]12CNC[C@@]1(C(=O)N1CCN(c3ncccc3C#N)CC1)CN(C)C2,-,-13.38%,-
O=S(=O)(NC[C@]12COC[C@H]1CN(CCc1ccccc1)C2)C1CC1,4.509%,-,-5.747%
CNS(=O)(=O)c1cccc(CNc2nccc(C(F)(F)F)n2)c1,7.59%,35.57%,-2.256%
CCN1CCn2c(C)cnc2C12CCN(C(=O)c1cscn1)CC2,4.478%,-,-13.94%
N#CCC(=O)NCc1nnc2n1CCN(Cc1nccs1)C2,-2.229%,23.98%,2.454%
Cc1ccccc1CSc1nc(N)cc(N2CCOC(C(N)=O)C2)n1 (centres undefined),21.29%,-13.7%,7.627%
COC(=O)c1cccn1C1CCN(Cc2ccccc2)CC1,-1.541%,12.36%,4.183%
CN1CCCCC1c1ncc2c(n1)CCN(CCCc1ccccc1)C2 (centres undefined),-,-3.976%,40.45%
Cc1c[nH]c(CN(C)C(=O)c2ccc(CSc3nnc[nH]3)o2)n1,-4.342%,-5.013%,3.865%
CN(C)C(=O)N1CCOCC2(CCN(c3ncccn3)C2)C1.O=C(O)C(F)(F)F (centres undefined),-,11.35%,-
CC(=O)Nc1nc2c(s1)C1(CCN(C)CC1)Nc1ccccc1S2,-,5.264% and -1.394%,1.13%
O=C(Cn1nc(Br)nc1Br)N1CCCCC1,4.16%,14.67%,9.278%
Nc1nc2c(c(NCc3ccncc3)n1)CCCC2,4.423%,11.05%,8.287%
CN(C(=O)c1ccccn1)c1nnc(C2CCOC2)s1 (centres undefined),-3.198%,8.895%,-0.565%
CC(C)NC(=O)C1CCC2(CCN(Cc3cnn(C)c3)CC2)C1.O=C(O)C(F)(F)F (centres undefined),-,-6.17%,-
CSCc1cccc(S(=O)(=O)NCCCN2CCOCC2)c1,-0.58%,5.144%,4.184%
CC(=O)NCCc1ncnn1-c1ccc(F)c(Cl)c1,-1.175%,2.55%,-2.041%
COCCC1(CO)CCCN(Cc2cc(C(F)(F)F)ccc2F)C1 (centres undefined),-5.183%,0.4261%,6.522%
COc1c(Cl)cc(C(=O)NCCNc2ncccn2)cc1Cl,-5.607%,-24.43%,5.747%
CN(C)CCOCC1CN(Cc2cccs2)Cc2ccnn2C1 (centres undefined),-5.057%,-,10.74%
CCS(=O)(=O)N1CCc2ccc(NC(=O)Nc3cccc(SC)c3)cc21,-4.741%,59.71%,-35.87%
CC(=O)N1CCC2(CCCN2Cc2cnn(C)c2)CC1,1.395%,-,7.438%
CC(C)C(=O)NCCC(=O)N1CCN(c2ccccn2)CC1,2.201%,25.06%,12.56%
COCCN(Cc1ccccn1)C(=O)c1ccc(=O)n(C)c1,-0.7807%,-6.957%,1.149%
CC(C)c1nc(CN(C)C(=O)C2CC(=O)N(Cc3ccncc3)C2)cs1 (centres undefined),20.32%,1.333%,2.326%
COc1ccccc1N1CCN(C(=O)Cn2nc(C)cc2C)CC1(C)C,-2.909%,-16.8%,8.387%
CC(C)c1noc(CN(Cc2cccs2)C2CC2)n1,-0.08285%,-55.64%,3.347%
CC(C)N1CCOCC2(CN(Cc3cccs3)CCO2)C1.O=C(O)C(F)(F)F.O=C(O)C(F)(F)F (centres undefined),-,10.47% and 14.08%,-
Cc1cs/c(=N\C(=O)Cn2nc(N3CCC(C)CC3)ccc2=O)[nH]1,-2.925%,-10.78%,1.031%
CCCN1CCC(Cc2nc(CN3CCN(C)CC3)no2)CC1,0.4996%,35.73%,1.622%
Cn1cc(N2CC3(COCCN(Cc4ccsc4)C3)OCC2=O)cn1 (centres undefined),9.492%,-,3.825%
CCOCC1CN(Cc2ccccn2)Cc2nn(CC3CC3)cc21 (centres undefined),5.671%,-,4.878%
Nc1cc2c(nn1)CCN(C(=O)C1CCc3ccccc31)C2 (centres undefined),16.23%,15.52%,6.433%
CN(C)c1nccc(N2CCO[C@H]3CN(Cc4ccco4)C[C@H]32)n1,6.419%,-,11.06%
CN1CCN([C@@H]2CN(C(=O)c3ccsc3)[C@@H]3CCCO[C@H]23)CC1,-5.05%,-,8.046%
[H][C@@]12C[C@@H](O)CN1C[C@@H](Cc1ccccc1)N(Cc1cnn(C=C)c1C)C2,-,7.664% and -0.7019%,-
O=C(c1cccc2c1OCO2)N1CCCC(n2cccn2)C1 (centres undefined),-4.147%,-3.986%,3.008%
Cc1nc(CC(=O)N2CCN(C)CC2c2ccccc2)cs1 (centres undefined),-3.382%,16.91%,9.36%
Cc1nc2c(c(C)c1CC(=O)NCc1cccc(C#N)c1)c(=O)[nH]n2C,-2.737%,-8.004%,3.396%
Cc1ccnc(NC(=O)CCc2cnn(C)c2C)c1,-1.651%,-8.154%,1.754%
Cc1noc(C)c1CN1CC2(CCN(C(=O)c3cc[nH]n3)C2)CC1=O (centres undefined),-0.8391%,17.12%,-125.9%
O=C(O)C(F)(F)F.[H][C@@]12C[C@H](C(=O)NC)CN(Cc3ccc(F)cc3)[C@]1([H])CCO2,-,-1.129% and 7.65%,-
O=C(C1CCCO1)N1CCC2(CC1)COCCN2CC1CC1 (centres undefined),0.3317%,28.22%,1.442%
O=C(O)C(F)(F)F.[H][C@@]12CCN(Cc3ccc4c(c3)OCO4)C[C@]1([H])O[C@H](C(=O)N1CCCC1)C2,-,8.603%,-
CC(C)CNC[C@H]1COCc2nc3cccnc3n21,-4.926%,-23.12%,2.488%
CCCc1noc(CCC(=O)N2CCN(C)CC2c2ccccc2)n1 (centres undefined),3.179%,-10.13%,13.86%

For reference, 3 entries once more:

For O=C(c1cccc2c1OCO2)N1CCCC(n2cccn2)C1 (centres undefined) the result was MtTrpRS: -4.147%; Leishmania in macrophages: -3.986%; TcHisRS: 3.008%.
For CN1CCN([C@@H]2CN(C(=O)c3ccsc3)[C@@H]3CCCO[C@H]23)CC1 the result was MtTrpRS: -5.05%; TcHisRS: 8.046%.
For CC(=O)Nc1nc2c(s1)C1(CCN(C)CC1)Nc1ccccc1S2 the result was Leishmania in macrophages: 5.264% and -1.394%; TcHisRS: 1.13%.